“And” between values parts separate entries of the source, which are not always exact repeats. Equal values may be shown once.
System: β2AR L258Azi (Δ350-413)
Assay: Time-correlated single photon counting, other sensor designs and dye-only controls (mNeonGreen/Cy3, TagRFP/AZDye488, free dyes)
Assay type: biochemical, human
Conditions: Extended Data Figure 4L

For Oregon Green, the “Fluorescence lifetime, Free Dye, individual replicates 1-3” value was 2.81 and 2.69 and 2.84 and the “Fluorescence lifetime, Free Dye, Average” value (average of 3) was 2.78.
